Measured values reported in the supplement of paper PMC6445147.
This is a noisy data set.

B1: human tRNA-Pro; a variant is named by its letters at N, in order (parent)
chain: GGCTCGTTGGTCTAGNGGTATGATTCTCGCTTAGGGTGCGAGAGGTCCCGGGTTCNNATCCCGGACGAGCCC

Tests used:
[1] = variants of: B1; assay: tRNA Pol-III promoter activity, log2 (circRNA frequency / plasmid DNA frequency) (log2 ratio); higher = stronger promoter activity; details: HEK293T; construct: no Pol-II promoter ((-)CMV library)
[2] = variants of: B1; assay: tRNA 3' processing efficiency (processed reads / all reads, maximum-likelihood estimate) (fraction); higher = more efficient 3' processing; details: HEK293T; construct: no Pol-II promoter ((-)CMV library)
[3] = variants of: B1; assay: tRNA 5' processing efficiency (processed reads / all reads, maximum-likelihood estimate) (fraction); higher = more efficient 5' processing; details: HEK293T; construct: CMV Pol-II promoter ((+)CMV library, decapped)

Variant | tRNA Pol-III promoter activity (log2) [1] | tRNA 3' processing efficiency [2] | tRNA 5' processing efficiency [3]
GAA A20C T59C | 2.1 | 0.22 | –
GAA A20T G50A | 7.94 | 0.56 | –
TAA G9A A20G A58T | 4.93 | 0.25 | –
GAA A20C A58G T59G | 5.45 | 0.13 | –
GAA A20C A58G T59A | 6.51 | 0.17 | –
GAA A20T C55T A58C | 3.23 | 0.73 | –
GAA C55T T59C | 0.897 | 0.17 | –
GAA C55T T59G | 0.394 | 0.3 | –
GAA G9A | 0.199 | 0.94 | 0.31
GAA A58C T59C | 3.54 | 0.2 | –
GAA A58C T59G | 1.55 | 0.4 | 0.15
GAA A58C T59A | 1.04 | 0.31 | –
AAA A20G | -0.438 | 0.4 | –
AAA A20T | 0.78 | 0.67 | 0.29
TAA A20T T53A | 7.06 | 0.11 | –
TAA A58C T59A | 5.25 | 0.4 | –
AAA C55T T59G | 2.94 | 0.25 | –
GAA G9A G15C G17T | 13.4 | 0.93 | –
GAA A20G C55G | -0.073 | 0.17 | –
AAA A20G T59C | 2.93 | 0.25 | –
CAA A20T A58G | 2.93 | 0.4 | –
CAA A20T A58T | 2.62 | 0.25 | –
GAA A14T T59A | 2.55 | 0.39 | –

Variant | tRNA Pol-III promoter activity (log2) [1] | tRNA 3' processing efficiency [2] | tRNA 5' processing efficiency [3]
GAA A14T T59G | 0.104 | 0.44 | –
GAA A14T T59C | 3.13 | 0.32 | –
GAA A20G A58T T59C | 6.84 | 0.57 | –
GAA A20G A58T T59A | 3.94 | 0.25 | –
GAA A20G A58T T59G | 4.78 | 0.22 | –
GAA A20C A58C T59A | 3.93 | 0.67 | –
GAA G2A T53G | 4.26 | 0.4 | –
GAA G9A G15A T59G | 3.34 | 0.25 | –
GAA A20T T53A T59C | 7.34 | 0.26 | –
GAA A20T T53A T59A | 2.84 | 0.14 | –
GAA C55A | -2.05 | 0.63 | 0.27
GAA C55G | -1.25 | 0.5 | 0.15
GAA C55T | -0.847 | 0.44 | 0.25
GAA A20T T54C T59A | 3.68 | 0.4 | –
TAA C55G T59G | 3.68 | 0.2 | –
GAA A20C G34A A58G | 3.21 | 0.33 | –
GAA G9A A14G A58C | 4.36 | 0.16 | –
TAA G9A G17T | 2.94 | 0.5 | –
TAA G9A C55T | 2.83 | 0.17 | –
GAA A20C A58T T59G | 3.45 | 0.25 | –
GAA A20C A58T T59A | 6.51 | 0.5 | –
TAA A20C T54A | 3.46 | 0.4 | –
AAA A20G T54A | 2.76 | 0.25 | –

Variant | tRNA Pol-III promoter activity (log2) [1] | tRNA 3' processing efficiency [2] | tRNA 5' processing efficiency [3]
GAA G9A A14T T53A | 3.61 | 0.25 | –
GAA A20T A58T T59C | 2.25 | 0.2 | –
GAA A20G A58G T59C | 5.39 | 0.32 | –
GAA G9A A14T A58G | 3.44 | 0.6 | –
AAA C55G A58T | 5.62 | 0.89 | –
GAA G9A A14G A20T | 2.5 | 0.29 | –
AAA A20T T53A | 3.71 | 0.13 | –
GAA C55A T59G | -1.12 | 0.5 | –
AAA A14T T59G | 3.05 | 0.33 | –
GAA G9A A14C T59A | 7.93 | 0.06 | –
TAA G9A A20C T53G | 5.73 | 0.85 | –
CAA A58T | 0.761 | 0.3 | –
CAA A58C | 1.7 | 0.5 | –
CAA A58G | 0.253 | 0.25 | –
GAA A20G T54A | -0.747 | 0.5 | 0.25
GAA G9A A14G T53A | 4.61 | 0.62 | –
TAA A58C | -0.434 | 0.57 | –
TAA A58T | 0.701 | 0.31 | –
TAA A58G | 0.293 | 0.27 | –
GAA A20T T53A A58G | 3.94 | 0.25 | –
GAA A20T T53A A58T | 3.26 | 0.5 | –
GAA G9A A14G | -0.865 | 0.25 | –
GAA G9A A14C | 1.11 | 0.29 | –

Looked up one by one from the entries so far (4):
Variant | tRNA Pol-III promoter activity (log2) [1] | tRNA 3' processing efficiency [2] | tRNA 5' processing efficiency [3]
CAA A20T A58T | 2.62 | 0.25 | –
GAA A20G T54A | -0.747 | 0.5 | 0.25
TAA C55G T59G | 3.68 | 0.2 | –
GAA G9A A14T A58G | 3.44 | 0.6 | –

More records.

Variant | tRNA Pol-III promoter activity (log2) [1] | tRNA 3' processing efficiency [2] | tRNA 5' processing efficiency [3]
AAA A20G T53A | 4.64 | 0.38 | –
CAA A20T T53G | 7.4 | 0.73 | –
GAA A20T G64A | 5.53 | 0.33 | –
CAA G9A | 1.12 | 0.57 | –
GAA A58T | 0.581 | 0.48 | 0.32
GAA A58G | 0.563 | 0.8 | 0.26
GAA A58C | 0.759 | 0.41 | 0.33
GAA G9A A20T | 1.36 | 0.5 | –
GAA A20C T54G | 1.69 | 0.75 | –
AAA G9A C55A | 1.8 | 0.2 | –
AAA A20T A58G T59G | 5.36 | 0.4 | –
TAA A20T T59G | 3.93 | 0.62 | –
TAA A58T T59C | 5.36 | 0.79 | –
TAA A58T T59G | 3.08 | 0.41 | –
TAA A58T T59A | 3.68 | 0.4 | –
CAA C55T A58T | 3.65 | 0.07 | –
CAA C55T A58G | 1.87 | 0.5 | –
CAA A58C T59A | 6.74 | 0.43 | –
CAA A58C T59G | 4.51 | 0.5 | –
GAA A33T A58T | 6.03 | 0.25 | –
GAA G9A G15A A20G A58G | 5.75 | 0.43 | –
CAA A20C A58T T59G | 5.26 | 0.57 | –
GAA A20G A58C T59G | 2.23 | 0.25 | –

Record cards (already shown). Values in the order: tRNA Pol-III promoter activity (log2) [1]	tRNA 3' processing efficiency [2]	tRNA 5' processing efficiency [3]
TAA A58G as listed: 0.293	0.27	–
TAA A58C T59A as listed: 5.25	0.4	–

More records.

Variant | tRNA Pol-III promoter activity (log2) [1] | tRNA 3' processing efficiency [2] | tRNA 5' processing efficiency [3]
GAA A20G A58C T59A | 5.03 | 0.5 | –
TAA G9A | -0.727 | 0.4 | 0.33
AAA C55G | 0.163 | 0.31 | 0.17
AAA C55A | -0.966 | 0.25 | –
AAA C55T | -0.555 | 0.44 | –
GAA A20T C55G T59C | 4.26 | 0.57 | –
GAA A20G A58G | 0.994 | 0.58 | 0.83
GAA A20G A58C | 2.24 | 0.73 | –
GAA A20G A58T | 0.863 | 0.34 | –
TAA C55T | -0.151 | 0.36 | –
TAA C55G | -0.628 | 0.25 | –
TAA C55A | 0.511 | 0.4 | –
GAA A20T C55T | -0.55 | 0.48 | –
GAA A20T C55G | 0.292 | 0.22 | 0.25
GAA A20T C55T T59A | 4.21 | 0.33 | –
TAA C55T A58T T59A | 5.26 | 0.2 | –
GAA A20T A58T | -0.511 | 0.49 | –
GAA A20T A58G | 1.63 | 0.22 | 0.25
GAA A20T A58C | 0.995 | 0.18 | 0.25
